Percent effect of library compounds

Sequences of proteins named here, by UniProt entry; tags and fusion partners are left off. Residues count along the entry.
UniProt Q4DA54, 1-478: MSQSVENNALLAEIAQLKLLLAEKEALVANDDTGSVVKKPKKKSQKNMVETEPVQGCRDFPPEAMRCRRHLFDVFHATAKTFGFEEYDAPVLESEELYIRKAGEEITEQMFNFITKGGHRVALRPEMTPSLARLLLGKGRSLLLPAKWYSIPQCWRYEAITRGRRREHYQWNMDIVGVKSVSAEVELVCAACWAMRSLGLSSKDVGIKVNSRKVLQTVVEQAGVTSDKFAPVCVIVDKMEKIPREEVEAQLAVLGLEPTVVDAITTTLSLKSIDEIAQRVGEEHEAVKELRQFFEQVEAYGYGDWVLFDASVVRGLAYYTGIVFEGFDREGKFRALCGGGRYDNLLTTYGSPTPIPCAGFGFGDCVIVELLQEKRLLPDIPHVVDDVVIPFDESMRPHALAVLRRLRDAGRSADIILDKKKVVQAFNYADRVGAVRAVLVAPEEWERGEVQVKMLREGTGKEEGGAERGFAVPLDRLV
UniProt I6X8D2, whole entry: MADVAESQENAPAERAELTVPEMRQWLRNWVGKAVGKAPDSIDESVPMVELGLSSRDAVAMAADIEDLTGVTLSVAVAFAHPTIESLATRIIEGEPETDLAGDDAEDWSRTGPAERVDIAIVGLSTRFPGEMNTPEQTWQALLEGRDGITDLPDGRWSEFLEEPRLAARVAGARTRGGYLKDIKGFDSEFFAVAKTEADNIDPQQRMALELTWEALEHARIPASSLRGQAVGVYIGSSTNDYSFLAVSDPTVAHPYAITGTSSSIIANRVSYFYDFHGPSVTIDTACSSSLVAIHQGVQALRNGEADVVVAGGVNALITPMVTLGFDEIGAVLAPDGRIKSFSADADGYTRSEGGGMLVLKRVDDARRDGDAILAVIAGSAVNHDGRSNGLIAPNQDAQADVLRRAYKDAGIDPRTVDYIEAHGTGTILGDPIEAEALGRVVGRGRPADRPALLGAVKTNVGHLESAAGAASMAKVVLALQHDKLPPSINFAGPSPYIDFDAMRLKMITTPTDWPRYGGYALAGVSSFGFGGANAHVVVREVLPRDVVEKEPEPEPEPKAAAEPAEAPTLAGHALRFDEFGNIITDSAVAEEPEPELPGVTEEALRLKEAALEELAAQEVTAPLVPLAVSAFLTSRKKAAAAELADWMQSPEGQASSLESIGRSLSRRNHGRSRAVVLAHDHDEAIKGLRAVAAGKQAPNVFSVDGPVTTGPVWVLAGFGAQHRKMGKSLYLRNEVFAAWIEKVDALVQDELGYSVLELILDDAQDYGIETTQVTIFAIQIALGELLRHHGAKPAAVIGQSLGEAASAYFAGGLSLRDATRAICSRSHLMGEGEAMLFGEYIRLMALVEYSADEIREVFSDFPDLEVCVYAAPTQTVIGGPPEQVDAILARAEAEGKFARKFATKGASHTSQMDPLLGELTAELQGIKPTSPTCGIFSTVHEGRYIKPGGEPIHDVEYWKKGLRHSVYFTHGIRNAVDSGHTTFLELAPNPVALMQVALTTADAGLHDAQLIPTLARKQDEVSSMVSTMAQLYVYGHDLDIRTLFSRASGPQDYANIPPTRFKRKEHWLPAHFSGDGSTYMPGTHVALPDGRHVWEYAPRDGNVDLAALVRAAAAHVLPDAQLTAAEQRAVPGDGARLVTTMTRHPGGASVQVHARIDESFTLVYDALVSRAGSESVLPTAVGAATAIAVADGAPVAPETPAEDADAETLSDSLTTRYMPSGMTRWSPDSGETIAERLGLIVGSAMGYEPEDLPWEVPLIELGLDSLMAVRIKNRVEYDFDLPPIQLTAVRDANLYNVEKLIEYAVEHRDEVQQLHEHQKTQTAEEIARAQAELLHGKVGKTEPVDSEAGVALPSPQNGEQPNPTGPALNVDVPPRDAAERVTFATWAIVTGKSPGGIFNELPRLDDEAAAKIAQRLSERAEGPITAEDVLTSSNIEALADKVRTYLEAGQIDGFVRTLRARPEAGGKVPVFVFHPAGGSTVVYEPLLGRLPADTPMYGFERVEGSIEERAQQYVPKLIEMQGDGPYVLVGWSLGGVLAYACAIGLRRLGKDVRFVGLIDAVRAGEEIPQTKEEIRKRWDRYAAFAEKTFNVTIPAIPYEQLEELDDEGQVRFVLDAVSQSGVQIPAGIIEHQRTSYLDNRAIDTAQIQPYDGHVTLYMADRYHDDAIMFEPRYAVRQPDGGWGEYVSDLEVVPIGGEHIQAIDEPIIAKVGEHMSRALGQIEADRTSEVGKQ
UniProt P9WNZ1, whole entry: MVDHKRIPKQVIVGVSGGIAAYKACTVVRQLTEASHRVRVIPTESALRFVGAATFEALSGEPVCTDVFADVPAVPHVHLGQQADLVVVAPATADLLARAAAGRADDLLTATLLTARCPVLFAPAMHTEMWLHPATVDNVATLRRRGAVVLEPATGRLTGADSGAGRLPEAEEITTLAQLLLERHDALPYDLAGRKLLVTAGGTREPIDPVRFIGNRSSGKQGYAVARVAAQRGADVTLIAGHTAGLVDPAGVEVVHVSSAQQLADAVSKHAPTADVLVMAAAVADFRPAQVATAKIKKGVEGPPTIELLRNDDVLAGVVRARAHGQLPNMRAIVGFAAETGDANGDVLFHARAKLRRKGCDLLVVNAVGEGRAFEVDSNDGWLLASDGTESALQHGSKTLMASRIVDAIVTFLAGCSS
UniProt Q8IDJ8, 1-583: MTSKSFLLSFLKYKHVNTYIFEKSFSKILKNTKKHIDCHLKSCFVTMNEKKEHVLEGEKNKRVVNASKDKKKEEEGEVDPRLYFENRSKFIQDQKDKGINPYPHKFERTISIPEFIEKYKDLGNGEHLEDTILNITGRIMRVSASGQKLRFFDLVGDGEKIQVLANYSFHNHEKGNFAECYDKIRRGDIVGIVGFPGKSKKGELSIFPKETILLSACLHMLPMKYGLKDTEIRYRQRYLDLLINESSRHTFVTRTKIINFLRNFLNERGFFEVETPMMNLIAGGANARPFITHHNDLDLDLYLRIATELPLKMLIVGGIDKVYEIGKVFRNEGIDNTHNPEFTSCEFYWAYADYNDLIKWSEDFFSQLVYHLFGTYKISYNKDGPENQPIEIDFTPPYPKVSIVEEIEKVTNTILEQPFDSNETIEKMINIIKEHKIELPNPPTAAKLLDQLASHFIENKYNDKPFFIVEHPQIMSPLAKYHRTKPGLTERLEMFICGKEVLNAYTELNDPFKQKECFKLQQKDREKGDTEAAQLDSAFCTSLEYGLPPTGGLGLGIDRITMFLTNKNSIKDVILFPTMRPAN
UniProt P9WFT3, whole entry: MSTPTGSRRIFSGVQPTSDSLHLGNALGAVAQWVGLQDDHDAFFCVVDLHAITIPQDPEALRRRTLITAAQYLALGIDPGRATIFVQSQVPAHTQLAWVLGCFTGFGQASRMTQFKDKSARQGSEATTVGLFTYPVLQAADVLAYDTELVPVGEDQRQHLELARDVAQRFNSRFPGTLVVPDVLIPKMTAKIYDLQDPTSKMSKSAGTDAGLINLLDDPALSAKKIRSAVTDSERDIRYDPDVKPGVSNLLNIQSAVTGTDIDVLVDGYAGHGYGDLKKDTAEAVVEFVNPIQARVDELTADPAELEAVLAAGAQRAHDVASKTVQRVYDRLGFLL

Measurements from “University of Dundee, Small-Polar-MMV Screening Library” (2021), ChEMBL document CHEMBL3988442.

A: 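Enzyme assay of histidyl-tRNA synthetase; the read-out is not stated. Target: Histidine-tRNA ligase, Trypanosoma cruzi CL Brener (UniProt Q4DA54). Tested at 30 µM. Direction is inferred from retests: higher values go with stronger inhibition. Of about 69,000 compounds tested this way, about 31 (0.045%) reached 50% or more in at least one test.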
B: 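Polyketide synthase Pks13, Mycobacterium tuberculosis (UniProt I6X8D2). Enzyme assay of the thioesterase domain of polyketide synthase 13; the read-out is not stated. Concentration: 30 µM. Higher reads as stronger inhibition (inferred from which compounds were picked for retests). Of about 67,000 compounds tested this way, about 300 (0.46%) reached 50% or more in at least one test.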
C: 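Enzyme assay of CoaBC with a phosphate dye (Biomol Green) read at 650 nm. Target: Coenzyme A biosynthesis protein CoaBC, Mycobacterium tuberculosis (UniProt P9WNZ1). Concentration: 30 µM. Direction is inferred from only a few compounds that gave an IC50; most scored high, so higher reads as stronger inhibition. Most strong results did not repeat in a second test. Of about 67,000 compounds tested this way, about 40 (0.06%) reached 50% or more in at least one test.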
D: 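Cell assay of Leishmania donovani living inside macrophages; the read-out is not stated. Concentration: 30 µM. Higher reads as stronger inhibition (inferred: compounds with an IC50 in retests scored well above the rest). Of about 69,000 compounds tested this way, about 1,000 (1.5%) reached 50% or more in at least one test.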
E: 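Enzyme assay of the cytosolic lysyl-tRNA synthetase in 384-well plates, read by luminescence. Target: Lysine-tRNA ligase, Plasmodium falciparum 3D7 (UniProt Q8IDJ8). Compounds at 30 µM. Direction is inferred from only a few compounds that gave an IC50; most scored high, so higher reads as stronger inhibition. Of about 69,000 compounds tested this way, about 49 (0.071%) reached 50% or more in at least one test.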
F: 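Enzyme assay of tryptophanyl-tRNA synthetase; the read-out is not stated. Target: Tryptophan-tRNA ligase, Mycobacterium tuberculosis (UniProt P9WFT3). Concentration: 10 µM. Higher most likely means stronger inhibition; the record gives no direction and few retests gave an IC50. Of about 65,000 compounds tested this way, about 64 (0.098%) reached 50% or more in at least one test.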

The filed quantity is “Percent Effect” (%). How 0% and 100% were set is not recorded. Most values in the screen are low, and negative values occur. The compounds are a random part of those screened. Two or more numbers in one place are separate tests of the same structure; such repeats can differ widely. A dash means the value is not listed here; it may have been measured.

| structure | A | B | C | D | E | F |
|---|---|---|---|---|---|---|
| `O=C([C@H]1C[C@H]2OCC[C@H]2N(Cc2ccncc2)C1)N1CCCCO1` | 3.784% | -5.493% | -1.65% | - | 3.441% | 0.3148% |
| `COc1ccc(CCNC(=O)Nc2cc(C)nn2C)cc1` | 0% | -22.44% | -6.903% | 9.796% | 0.8339% | 3.416% |
| `COc1cccc(C(=O)N2CCCC2c2ncc3c(n2)CCN(C)C3)c1` (centres unmarked) | 27.47% | -1.021% | 1.456% | 15.1% & 15.46% | 6.212% | - |
| `CN(C)CC(=O)N1C[C@@H]2CC[C@H](Oc3ccccc3)[C@@H]2C1` | 11.94% | 6.22% | 4.38% | - | 0.4071% | 2.609% |
| `c1ccc(-c2nc(CCNC3CCOC4(CCOCC4)C3)no2)cc1` (centres unmarked) | 8.287% | -19.34% | 3.883% | 4.933% | 2.323% | -1.882% |
| `O=C(O)C(F)(F)F.c1cnc(N2CC[C@@H](OCC3CC3)[C@@H]2Cc2cccnc2)nc1` | - | - | - | 15.85% | - | - |
| `CC(=O)N1[C@H](CN(C)C)C[C@@H]2CN(C(=O)c3occc3C)CC[C@@H]21` | 5.825% | -28.73% | 2.188% | - | 6.553% | -3.634% |
| `COc1c(CNCc2cccc(Cn3cccn3)c2)c(C)nn1C` | 8.721% | 4.424% | 8.114% | 41.23% | -0.5107% | -4.72% |
| `COc1cccc(OCC(=O)NS(=O)(=O)c2ccc(C)s2)c1` | 3.008% | -41.46% | 6.17% | 8.51% | 6.103% | 0.8655% |
| `CN(C)C(=O)CN1CCC(c2cccc(Cc3ccc(F)cc3)n2)CC1` | 7.447% | - | -2.206% | 15.35% | 5.833% | - |
| `Cc1nnc(N2CCCC3(CN(Cc4ccc(C)s4)CCO3)C2)o1` (centres unmarked) | 1.653% | -10.12% | 12.26% | - | -1.749% | -0.08224% |
| `Cc1ccc(C(=O)N2CCOc3nc(C)ccc32)c(F)c1` | 6.173% | - | -1.229% | 23.55% | 0.322% | -1.923% |
| `CC(C)NC(=O)c1nc2c(s1)CCCN2C(C)C` | 8.743% | -16.23% | 0.2179% | 17.76% | 2.186% | 2.876% |
| `N#Cc1ccccc1CN1CCc2sccc2C1` | 3.191% | -26.07% | -12.05% | 37.26% | 0.9443% | -0.09099% |
| `CCC(C)(N)c1nc(C(C)C)cc(=O)[nH]1.Cl` (centres unmarked) | - | - | - | 30.7% | - | - |
| `CC(C)OCCN1CCC(Nc2ncccn2)CC1` | 5.025% | 3.368% | 3.56% | 49.62% | 5.88% | 6.207% |
| `O=C(CCc1cscn1)N1CCCC(c2ccn[nH]2)C1` (centres unmarked) | 4.58% | -13.01% | 0.241% | 30.14% | 0.1043% | -1.519% |
| `CC(=O)N[C@@H](CC(C)C)C(=O)N1CCC(n2cc(C(C)(C)N)nn2)CC1` | -13.59% | -52.71% | -0.8264% | -6.926% | 3.676% | -1.257% |
| `CCCNC(=O)Nc1ncc(-c2cccnc2)s1` | 6.202% | 9.702% | 1.35% | 20.63% | 0.3719% | -5.933% |
| `O=C(O)C(F)(F)F.[H][C@]12C[C@@H](CN(C)C)N(CC3CC3)[C@@]1([H])CCN(C(=O)c1ccoc1)C2` | - | - | - | 18.77% | - | - |
| `COc1ccc(OC)c(-n2nnnc2SCC2CCCCO2)c1` (centres unmarked) | 7.216% | -20.36% | -12.03% | -1.309% | 2.297% | -1.694% |
| `Cc1ccc(-c2cc(-c3nc(CN4CCN(C)CC4)no3)n[nH]2)cc1` | -2.564% | 5.029% | 2.981% | 30.82% | 1.367% | -0.6606% |
| `Cn1cc(CN2CC[C@@H]3[C@@H](CCC(=O)N3CCc3c[nH]cn3)C2)cn1` | -1.653% | -35.99% | 14.84% | - | 0.9033% | 0.08224% |
| `CC(=O)N1CCCC2(CCN(Cc3ccc(Cl)c(C(F)(F)F)c3)C2)C1` (centres unmarked) | 4.813% | -31.43% | 10.42% | 31.03% | 3.819% | -4.443% |
| `CN1CCCC(C(=O)N2CCC(Oc3ccc(C#N)cn3)CC2)C1` (centres unmarked) | 0% | -10.75% | -4.869% | 24.58% | 7.234% | 1.72% |
| `O=C(c1cscn1)N1CCC2(CCCN(CCOc3ccccc3)C2)C1` (centres unmarked) | 6.25% | -26.25% | 7.529% | -11.84% | 0.8874% | -5.97% |
| `CN(C)S(=O)(=O)N1CC[C@]2(O)CCN(c3ncccn3)C[C@@H]2C1` | 10.84% | 5.296% | 1.238% | - | 3.054% | 2.42% |
| `CCc1nnc(CN2CCc3ccc(S(N)(=O)=O)cc32)o1` | 7.182% | -17.45% | -1.911% | 3.697% | 0.9169% | -1.534% |
| `Cc1noc(C)c1CN1Cc2nccn2CC(CN2CCOCC2)C1.O=C(O)C(F)(F)F.O=C(O)C(F)(F)F` (centres unmarked) | - | - | - | 19.84% | - | - |
| `O=C(O)C(F)(F)F.O=C(O)C(F)(F)F.c1ccc(OCc2n[nH]c3c2CN(Cc2cccs2)C3)nc1` | - | - | - | 7.679% | - | - |
| `[H][C@]12CC[C@]([H])(CN(C(=O)c3cccnc3)C1)N(Cc1cc(F)ccc1F)C2` | - | - | - | 21.98% | - | - |
| `Cc1ccc(C(=O)NCCS(=O)(=O)Cc2ccccc2)c(C)c1` | 2.105% | 6.332% | -4.781% | 10.54% | 1.578% | -2.388% |
| `O=C(c1ccc(CN2CC(n3cccn3)C2)cc1)N1CCCC1` | 6.522% | -17.66% | 7.863% | 18.42% | 1.489% | -2.422% |
| `O=C1O[C@@H]2CN(Cc3cccnc3)C[C@@H]2N1CCCN1CCOCC1` | -1.136% | -24.69% | 9.208% | - | 1.064% | -0.764% |
| `N#Cc1cccc(S(=O)(=O)NC(=O)C2CC(c3ccccc3)=NO2)c1` (centres unmarked) | 5.699% | -1.447% | 4.688% | 19.34% | -1.492% | -0.2427% |
| `COCCc1noc(CN2CCCC(Cn3cncn3)C2)n1` (centres unmarked) | 0.2865% | -14.75% | -6.832% | 18.37% | -0.8678% | 6.768% |
| `CCC(CNS(=O)(=O)c1cccc(C(=O)OC)c1)N1CCCC1` (centres unmarked) | 3.704% | -0.5096% | 7.356% | 25.44% | 3.419% | -1.162% |
| `CN1CCN(C(=O)Cn2ccc3c(Cl)cccc32)CC1` | 9.697% | -26.61% | 2.043% | 54.77% | 2.936% | -2.349% |
| `O=C([C@H]1CCCO1)N1CCC2(CC1)C(=O)N(CC1CC1)c1ccccc12` | 3.883% | -25.48% | 2.703% | 13.42% | 1.702% | -2.616% |
| `COCCOCCC(=O)Nc1c(-c2ccc(F)cc2)ncn1C` | 10.1% | -21.26% | -3.89% | 2.84% | 0.2987% | -3.749% |
| `CC(C)CNC(=O)CSc1nnc(OC(C)C)s1` | 4.762% | -18.71% | 3.512% | -15.67% | 9.552% | -4.161% |
| `CN(C)CC(=O)N1CCC2(CC1)COc1ccccc1S(=O)(=O)N(C)C2` | 6.542% | -18.54% | 5.679% | 10.16% | 0.8103% | -0.09074% |

For reference, 3 entries once more:

- CC(=O)N1CCCC2(CCN(Cc3ccc(Cl)c(C(F)(F)F)c3)C2)C1 (centres unmarked) : A: 4.813%; B: -31.43%; C: 10.42%; D: 31.03%; E: 3.819%; F: -4.443%
- Cc1ccc(C(=O)N2CCOc3nc(C)ccc32)c(F)c1 : A: 6.173%; C: -1.229%; D: 23.55%; E: 0.322%; F: -1.923%
- CN1CCCC(C(=O)N2CCC(Oc3ccc(C#N)cn3)CC2)C1 (centres unmarked) : A: 0%; B: -10.75%; C: -4.869%; D: 24.58%; E: 7.234%; F: 1.72%